Laboratory results as given in article doi:10.1101/2025.02.26.640344.
Results are given in words; binding and its absence hold for the method and conditions named. For some of these results: In cells and extracts the contact can be indirect. Some binding calls cover weakened binding; strength is not graded here. For some of these results: Where a sequence is shown, tags or fusion partners need not be part of it.

Protein sequences, listed by entry. Tags and fused reporters are not part of them.
UniProt Q9QZL0, whole entry: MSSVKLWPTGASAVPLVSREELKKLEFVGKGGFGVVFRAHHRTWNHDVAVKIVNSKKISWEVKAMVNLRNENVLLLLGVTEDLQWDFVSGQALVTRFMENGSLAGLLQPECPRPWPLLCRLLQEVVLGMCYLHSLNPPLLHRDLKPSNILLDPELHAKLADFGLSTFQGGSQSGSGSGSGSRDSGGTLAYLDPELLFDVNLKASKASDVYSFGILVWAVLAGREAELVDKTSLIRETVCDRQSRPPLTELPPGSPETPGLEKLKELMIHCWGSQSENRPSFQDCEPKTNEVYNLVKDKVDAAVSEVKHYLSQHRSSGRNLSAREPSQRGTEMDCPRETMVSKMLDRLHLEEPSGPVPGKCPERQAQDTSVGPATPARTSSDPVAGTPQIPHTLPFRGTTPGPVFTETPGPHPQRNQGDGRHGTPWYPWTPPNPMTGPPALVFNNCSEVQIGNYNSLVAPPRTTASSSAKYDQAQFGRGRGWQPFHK

Assays:
[1] = target: T1, N-terminal V5-tagged MLKL, in PKLC-RIPK3^2×Fv cells (UniProt Q9D2Y4); experiment: co-IP
T1 sequence: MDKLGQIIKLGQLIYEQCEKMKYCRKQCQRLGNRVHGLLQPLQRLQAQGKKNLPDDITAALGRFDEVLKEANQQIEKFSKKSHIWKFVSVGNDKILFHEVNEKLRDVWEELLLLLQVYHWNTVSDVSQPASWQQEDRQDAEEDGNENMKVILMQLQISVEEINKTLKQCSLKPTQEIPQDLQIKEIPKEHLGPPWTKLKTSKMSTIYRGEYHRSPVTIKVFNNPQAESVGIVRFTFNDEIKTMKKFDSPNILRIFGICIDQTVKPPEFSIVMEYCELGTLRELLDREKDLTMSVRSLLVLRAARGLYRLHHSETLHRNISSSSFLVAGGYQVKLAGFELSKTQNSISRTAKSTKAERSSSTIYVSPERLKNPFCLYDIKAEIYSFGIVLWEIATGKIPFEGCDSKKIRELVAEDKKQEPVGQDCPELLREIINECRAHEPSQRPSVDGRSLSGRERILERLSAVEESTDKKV

[2] = target: T1, N-terminal V5-tagged MLKL, in PKLC-RIPK3^2×Fv cells; experiment: SEC
[3] = target: Flag-RIPK3, doxycycline-inducible, in PKLC-RIPK3^Tet-on cells (UniProt Q9QZL0); experiment: co-IP
[4] = target: Flag-RIPK3, doxycycline-inducible, in PKLC-RIPK3^Tet-on cells, Q9QZL0; experiment: co-IP; conditions: remark: other sources report otherwise

B1: Caspase-8, endogenous in PKLC cells (protein, UniProt O89110 1-480)
chain: MDFQSCLYAIAEELGSEDLAALKFLCLDYIPHKKQETIEDAQKLFLRLREKGMLEEGNLSFLKELLFHISRWDLLVNFLDCNREEMVRELRDPDNAQISPYRVMLFKLSEEVSELELRSFKFLLNNEIPKCKLEDDLSLLEIFVEMEKRTMLAENNLETLKSICDQVNKSLLGKIEDYERSSTERRMSLEGREELPPSVLDEMSLKMAELCDSPREQDSESRTSDKVYQMKNKPRGYCLIINNHDFSKAREDITQLRKMKDRKGTDCDKEALSKTFKELHFEIVSYDDCTANEIHEILEGYQSADHKNKDCFICCILSHGDKGVVYGTDGKEASIYDLTSYFTGSKCPSLSGKPKIFFIQACQGSNFQKGVPDEAGFEQQNHTLEVDSSSHKNYIPDEADFLLGMATVKNCVSYRDPVNGTWYIQSLCQSLRERCPQGDDILSILTGVNYDVSNKDDRRNKGKQMPQPTFTLRKKLFFPP
binding [1]: binds

B2: N-terminal V5-tagged MLKL, in PKLC-RIPK3^2×Fv cells (protein, UniProt Q9D2Y4 1-472)
chain: MDKLGQIIKLGQLIYEQCEKMKYCRKQCQRLGNRVHGLLQPLQRLQAQGKKNLPDDITAALGRFDEVLKEANQQIEKFSKKSHIWKFVSVGNDKILFHEVNEKLRDVWEELLLLLQVYHWNTVSDVSQPASWQQEDRQDAEEDGNENMKVILMQLQISVEEINKTLKQCSLKPTQEIPQDLQIKEIPKEHLGPPWTKLKTSKMSTIYRGEYHRSPVTIKVFNNPQAESVGIVRFTFNDEIKTMKKFDSPNILRIFGICIDQTVKPPEFSIVMEYCELGTLRELLDREKDLTMSVRSLLVLRAARGLYRLHHSETLHRNISSSSFLVAGGYQVKLAGFELSKTQNSISRTAKSTKAERSSSTIYVSPERLKNPFCLYDIKAEIYSFGIVLWEIATGKIPFEGCDSKKIRELVAEDKKQEPVGQDCPELLREIINECRAHEPSQRPSVDGRSLSGRERILERLSAVEESTDKKV
binding [2]: binds

B3: MLKL, endogenous in PKLC cells (protein, UniProt Q9D2Y4 1-472)
chain: MDKLGQIIKLGQLIYEQCEKMKYCRKQCQRLGNRVHGLLQPLQRLQAQGKKNLPDDITAALGRFDEVLKEANQQIEKFSKKSHIWKFVSVGNDKILFHEVNEKLRDVWEELLLLLQVYHWNTVSDVSQPASWQQEDRQDAEEDGNENMKVILMQLQISVEEINKTLKQCSLKPTQEIPQDLQIKEIPKEHLGPPWTKLKTSKMSTIYRGEYHRSPVTIKVFNNPQAESVGIVRFTFNDEIKTMKKFDSPNILRIFGICIDQTVKPPEFSIVMEYCELGTLRELLDREKDLTMSVRSLLVLRAARGLYRLHHSETLHRNISSSSFLVAGGYQVKLAGFELSKTQNSISRTAKSTKAERSSSTIYVSPERLKNPFCLYDIKAEIYSFGIVLWEIATGKIPFEGCDSKKIRELVAEDKKQEPVGQDCPELLREIINECRAHEPSQRPSVDGRSLSGRERILERLSAVEESTDKKV
binding [3]: binds

B4: RIPK1, endogenous in PKLC cells, Q60855 1-656 (protein)
chain: MQPDMSLDNIKMASSDLLEKTDLDSGGFGKVSLCYHRSHGFVILKKVYTGPNRAEYNEVLLEEGKMMHRLRHSRVVKLLGIIIEEGNYSLVMEYMEKGNLMHVLKTQIDVPLSLKGRIIVEAIEGMCYLHDKGVIHKDLKPENILVDRDFHIKIADLGVASFKTWSKLTKEKDNKQKEVSSTTKKNNGGTLYYMAPEHLNDINAKPTEKSDVYSFGIVLWAIFAKKEPYENVICTEQFVICIKSGNRPNVEEILEYCPREIISLMERCWQAIPEDRPTFLGIEEEFRPFYLSHFEEYVEEDVASLKKEYPDQSPVLQRMFSLQHDCVPLPPSRSNSEQPGSLHSSQGLQMGPVEESWFSSSPEYPQDENDRSVQAKLQEEASYHAFGIFAEKQTKPQPRQNEAYNREEERKRRVSHDPFAQQRARENIKSAGARGHSDPSTTSRGIAVQQLSWPATQTVWNNGLYNQHGFGTTGTGVWYPPNLSQMYSTYKTPVPETNIPGSTPTMPYFSGPVADDLIKYTIFNSSGIQIGNHNYMDVGLNSQPPNNTCKEESTSRHQAIFDNTTSLTDEHLNPIRENLGRQWKNCARKLGFTESQIDEIDHDYERDGLKEKVYQMLQKWLMREGTKGATVGKLAQALHQCCRIDLLNHLIRASQS
binding [4]: binds
